Measured values reported in doi:10.1101/2025.10.29.685130.
No constants are given. Whether binding was seen depends on the method and setting. Binding seen in cells or lysates may run through a third protein. A yes stands for co-enrichment or nearness to the bait. Other partners may have been found.

Amino acid sequences for entries named in this document (tags omitted).
UniProt P63141: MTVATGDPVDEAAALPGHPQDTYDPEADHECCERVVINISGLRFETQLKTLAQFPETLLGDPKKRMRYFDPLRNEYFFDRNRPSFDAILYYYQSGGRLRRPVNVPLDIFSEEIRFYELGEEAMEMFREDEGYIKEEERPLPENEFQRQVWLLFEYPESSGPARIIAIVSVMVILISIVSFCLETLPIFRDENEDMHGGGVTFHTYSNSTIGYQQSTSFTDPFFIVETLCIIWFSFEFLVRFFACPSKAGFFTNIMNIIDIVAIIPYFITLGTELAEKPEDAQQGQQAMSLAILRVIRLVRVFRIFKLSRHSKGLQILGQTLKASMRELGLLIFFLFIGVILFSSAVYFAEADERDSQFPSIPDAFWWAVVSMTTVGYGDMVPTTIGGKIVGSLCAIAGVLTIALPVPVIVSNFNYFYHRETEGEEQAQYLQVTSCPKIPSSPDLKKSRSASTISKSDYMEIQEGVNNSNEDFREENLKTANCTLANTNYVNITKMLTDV

Biological target: phosphoY458 Kv1.2 (mouse) (UniProt P63141)
Test: affinity purification with mass spectrometry

| binding | Binder |
| --- | --- |
| binds | Kvβ2 (protein, UniProt P62482 1-367) MYPESTTGSPARLSLRQTGSPGMIYSTRYGSPKRQLQFYRNLGKSGLRVSCLGLGTWVTFGGQITDEMAEHLMTLAYDNGINLFDTAEVYAAGKAEVVLGNIIKKKGWRRSSLVITTKIFWGGKAETERGLSRKHIIEGLKASLERLQLEYVDVVFANRPDPNTPMEETVRAMTHVINQGMAMYWGTSRWSSMEIMEAYSVARQFNLIPPICEQAEYHMFQREKVEVQLPELFHKIGVGAMTWSPLACGIVSGKYDSGIPPYSRASLKGYQWLKDKILSEEGRRQQAKLKELQAIAERLGCTLPQLAIAWCLRNEGVSSVLLGASNAEQLMENIGAIQVLPKLSSSIVHEIDSILGNKPYSKKDYRS |
| binds | AP3b2 (protein, UniProt Q9JME5 1-1082) MSAAPAYSEDKGGSAGPGEPEYGHDPASGGIFSSDYKRHDDLKEMLDTNKDSLKLEAMKRIVAMIARGKNASDLFPAVVKNVACKNIEVKKLVYVYLVRYAEEQQDLALLSISTFQRGLKDPNQLIRASALRVLSSIRVPIIVPIMMLAIKEAASDMSPYVRKTAAHAIPKLYSLDSDQKDQLIEVIEKLLADKTTLVAGSVVMAFEEVCPERIDLIHKNYRKLCNLLIDVEEWGQVVIISMLTRYARTQFLSPTQNESLLEENPEKAFYGSEEDEAKGPGSEEAATAALPARKPYVMDPDHRLLLRNTKPLLQSRSAAVVMAVAQLYFHLAPKAEVGVIAKALVRLLRSHSEVQYVVLQNVATMSIKRRGMFEPYLKSFYIRSTDPTQIKILKLEVLTNLANETNIPTVLREFQTYIRSMDKDFVAATIQAIGRCATNIGRVRDTCLNGLVQLLSNRDELVVAESVVVIKKLLQMQPAQHGEIIKHLAKLTDNIQVPMARASILWLIGEYCEHVPKIAPDVLRKMAKSFTAEEDIVKLQVINLAAKLYLTNSKQTKLLTQYVLSLAKYDQNYDIRDRARFTRQLIVPSEQGGALSRHAKKLFLAPKPAPILESSFKDRDHFQLGSLSHLLNAKATGYQELPDWPEEAPDPSVRNVEVPEWTKCSNREKRKEKEKPFYSDSEGESGPTESADSEPESESESESKSSSGSGSGESSSESDNEEEDEEKGGGSESEQSEEEDEKKKKTKKKKASEGHREGSSSEEGSDSSSSSESEVTSESEEEQVEPASWRKKTPPGSKSAPVAKEISLLDLEDFTPPSVQPVSPPMVVSTSLAADLEGLTLTDSSLVPSLLSPVSSIGRQELLHRVAGEGLSVDYAFSRQPFSGDPHMVSLHIYFSNNSETPIKGLHVGTPKLPAGISIQEFPEIESLAPGESTTTVMGINFCDSTQAANFQLCTQTRQFYVSIQPPVGELMAPVFMSENEFKKEQGKLTGMNEITEKLTLPDTCRSDHMVVQKVTATANLGRVPCGTSDEYRFAGRTLTSGSLVLLTLDARAAGAAQLTVNSEKMVIGTMLVKDVIQALTQ |
| binds | septin 8 (protein, UniProt Q8CHH9 1-429) MAATDLERVSNAEPEPRSLSLGGHVGFDSLPDQLVSKSVTQGFSFNILCVGETGIGKSTLMNTLFNTTFETEEASHHEECVRLRPQTYDLQESNVHLKLTIVDAVGFGDQINKDDSYRPIVDYIDAQFENYLQEELKIRRSLFDYHDTRIHVCLYFITPTGHSLKSLDLVTMKKLDSKVNIIPIIAKADTISKSELHKFKIKIMGELVSNGVQIYQFPTDDEAVAEINAVMNAHLPFAVVGSTEEVKVGNKLVRARQYPWGVVQVENENHCDFVKLREMLIRVNMEDLREQTHSRHYELYRRCKLEEMGFQDSDGDSQPFSLQETYEAKRKEFLSELQRKEEEMRQMFVNKVKETELELKEKERELHEKFEHLKRIHQEEKRKVEEKRRELEEETNAFNCRKAAMEALQSQALHATSQQPLRKDKDKKN |
| binds | Gas7 (protein, UniProt Q60780 1-421) MATALQKPGMVPPPPGEESQTVILPPGWHSYLSPQGRRYYVNTTTNETTWERPSSSPGISASPAPHRSSLPTTVNGYHASGTPAHPPETAHMSLRKSTGDSQNLGSSSPGRKQSKENTITINCVTFPHPDTMPEQQLLKPTEWSYCDYFWADKKDPQGNGTVAGFELLLQKQLKGKQMQKEMSEFIRERIKIEEEYAKNLAKLSQNSLAAQEEGSLGEAWAQVKKSLADEAEVHLKFSAKLHSEVEKPLMNFRENFKKDMKKCDHHIADLRKQLASRYASVEKARKALTERQKDLEMKTQQLEIKLSNKTEEDIKKARRKSTQAGDDLMRCVDLYNQAQSKWFEEMVTTTLELERLEVERVEMIRQHLCQYTQLRHETDMFNQSTVEPVDQLLRKVDPAKDRELWVREHKTGNIRPVDMEI |
| binds | septin 11 (protein, UniProt Q8C1B7 1-431) MAVAVGRPSNEELRNLSLSGHVGFDSLPDQLVNKSTSQGFCFNILCVGETGIGKSTLMDTLFNTKFESDPATHNEPGVRLKARSYELQESNVRLKLTIVDTVGFGDQINKDDSYKPIVEYIDAQFEAYLQEELKIKRSLFNYHDTRIHACLYFIAPTGHSLKSLDLVTMKKLDSKVNIIPIIAKADTIAKNELHKFKSKIMSELVSNGVQIYQFPTDEETVAEINATMSVHLPFAVVGSTEEVKIGNKMAKARQYPWGVVQVENENHCDFVKLREMLIRVNMEDLREQTHTRHYELYRRCKLEEMGFKDTDPDSKPFSLQETYEAKRNEFLGELQKKEEEMRQMFVMRVKEKEAELKEAEKELHEKFDLLKRTHQEEKKKVEDKKKELEEEVSNFQKKKAAAQLLQSQAQQSGAQQTKKDKDKKNPWLCTE |
| binds | Add1 (protein, UniProt Q9QYC0 1-735) MNGDTRAAVVTSPPPTTAPHKERYFDRVDENNPEYLRERNMAPDLRQDFNMMEQKKRVSMILQSPAFCEELESMIQEQFKKGKNPTGLLALQQIADFMTASVPNVYPAAPQGGMAALNMSLGMVTPVNDLRGSDSIAYDKGEKLLRCKLAAFYRLADLFGWSQLIYNHITTRVNSEQEHFLIVPFGLLYSEVTASSLVKVNLQGDIVDRGSTNLGVNQAGFTLHSAVYAARPDAKCIVHIHTPAGAAVSAMKCGLLPISPEALSLGDVAYHDYHGILVDEEEKILIQKNLGPKSKVLILRNHGLVSVGESVEEAFYYIHNLVVACEIQVRTLASAGGPDNLVLLDPGKYKAKSRSPGTPAGEGSGSPPKWQIGEQEFEALMRMLDNLGYRTGYPYRYPALRERSKKYSDVEVPASVTGHSFASDGDSGTCSPLRHSFQKQQREKTRWLHSGRGDDASEEGQNGSSPKSKTKWTKEDGHRTSTSAVPNLFVPLNTNPKEVQEMRNKIREQNLQDIKTAGPQSQVLCGVMMDRSLVQGELVTASKAIIEKEYQPHVIVSTTGPNPFNTLTDRELEEYRREVERKQKGSEENLDETREQKEKSPPDQSAVPNTPPSTPVKLEEDLPQEPTSRDDSDATTFKPTPPDLSPDEPSEALAFPAVEEEAHASPDPTQPPAEADPEPASAPTPGAEEVASPATEEGSPMDPGSDGSPGKSPSKKKKKFRTPSFLKKSKKKSDS |
| binds | septin 5 (protein, UniProt Q9Z2Q6 1-369) MSTGLRYKSKLATPEDKQDIDKQYVGFATLPNQVHRKSVKKGFDFTLMVAGESGLGKSTLVHSLFLTDLYKDRKLLSAEERINQTVEILKHTVDIEEKGVKLKLTIVDTPGFGDAVNNSECWKPITDYVDQQFEQYFRDESGLNRKNIQDNRVHCCLYFISPFGHGLRPVDVGFMKALHEKVNIVPLIAKADCLVPSEIRKLKDRIREEIDKFGIHVYQFPECDSDEDEDFKQQDRELKESAPFAVIGSNTVVEAKGQRVRGRLYPWGIVEVENQAHCDFVKLRNMLIRTHMHDLKDVTCDVHYENYRAHCIQQMTSKLTQDSRMESPIPILPLPTPDAETEKLIRMKDEELRRMQEMLQKMKQQMQDQ |
| binds | Gda (protein, UniProt Q9R111 1-454) MCAARTPPLALVFRGTFVHSTWTCPMEVLRDHLLGVSDSGKIVFLEESSQQEKLAKEWCFKPCEIRELSHHEFFMPGLVDTHIHAPQYAFAGSNVDLPLLEWLNKYTFPTEQRFRSTDVAEEVYTRVVRRTLKNGTTTACYFGTIHTDSSLILAEITDKFGQRAFVGKVCMDLNDTVPEYKETTEESVKETERFVSEMLQKNYPRVKPIVTPRFTLSCTETLMSELGNIAKTHDLYIQSHISENREEIEAVKSLYPSYKNYTDVYDKNNLLTNKTVMAHGCYLSEEELNIFSERGASIAHCPNSNLSLSSGLLNVLEVLKHKVKIGLGTDVAGGYSYSMLDAIRRAVMVSNVLLINKVNEKNLTLKEVFRLATLGGSQALGLDSEIGNFEVGKEFDALLINPRASDSPIDLFYGDFVGDISEAVIQKFLYLGDDRNIEEVYVGGKQVVPFSSSV |
| binds | AP3d1 (protein, UniProt O54774 1-1199) MALKMVKGSIDRMFDKNLQDLVRGIRNHKEDEAKYISQCIDEIKQELKQDNIAVKANAVCKLTYLQMLGYDISWAAFNIIEVMSASKFTFKRVGYLAASQCFHEGTDVIMLTTNQIRKDLSSPSQYDTGVALTGLSCFVTPDLARDLANDIMTLMSHTKPYIRKKAVLIMYKVFLKYPESLRPAFPRLKEKLEDPDPGVQSAAVNVICELARRNPKNYLSLAPLFFKLMTSSTNNWVLIKIIKLFGALTPLEPRLGKKLIEPLTNLIHSTSAMSLLYECVNTVIAVLISLSSGMPNHSASIQLCVQKLRILIEDSDQNLKYLGLLAMSKILKTHPKSVQSHKDLILQCLDDKDESIRLRALDLLYGMVSKKNLMEIVKKLMTHVDKAEGTTYRDELLTKIIDICSQSNYQHITNFEWYISILVELTRLEGTRHGHLIAAQMLDVAIRVKAIRKFAVSQMSSLLDSAHLVASSTQRNGICEVLYAAAWICGEFSEHLQGPQQTLEAMLRPKVTTLPGHIQAVYVQNVVKLYASILQQKEQAADTEAAQEVTQLLVERLPQFVQSADLEVQERASCILQLVKHVQKLQAKGVPVAEEVSALFAGELNPVAPKAQKKVPVPEGLDLDAWINEPPSDSESEDEKPKAIFHEEEPRHTRRRQPEEDEEELARRREARKQEQANNPFYIKSSPSPQKRYQDAPGVEHIPVVQIDLSVPLKVPGMPMSDQYVKLEEQRRHRQRLEKDKKRKKKEKGKRRHSSLPTESDEDIAPAQRVDIITEEMPENALPSDEDDKDPNDPYRALDIDLDKPLADSEKLPVQKHRNAEAVKSPEKEGVLGVEKKSKKPKKKEKKTKEREREKKDKKGEDLDFWLSTTPPPAAAPIPAPSTEELAASTITSPKDECEVLKGEEEDHVDHDQERKSSRHKKKKHRKEKEKEERPRDKKKAKKKQVAPLENGAAAEEEEEPIPPMSSYCLLAESPYIKVTYDIQASLQKDSQVTVSIILENQSSSFLKNMELNVLDSLNTKMTRPEGSSVHDGVPVPFQLPPGVSNEAQFVFTIQSIVMAQKLKGTLSFIAKDDEGATHEKLDFRLHFSCSSYLITTPCYSDAFAKLLESGDLSMNSIKVDGISMSFQNLLAKICFYHHFSVVERVDSCASMYSRSIQGHHVCLLVKKGESSVSVDGKCSDATLLSSLLEEMKTTLAQC |
